These are literature values, as cited in patent US20130289019A1, “METHODS OF TREATING BEHAVIORIAL AND/OR MENTAL DISORDERS” (AMAZING GRACE, INC., priority 2012, published 2013).

The chains behind the UniProt entries cited, without tags or fusion partners.
UniProt P20309, whole entry: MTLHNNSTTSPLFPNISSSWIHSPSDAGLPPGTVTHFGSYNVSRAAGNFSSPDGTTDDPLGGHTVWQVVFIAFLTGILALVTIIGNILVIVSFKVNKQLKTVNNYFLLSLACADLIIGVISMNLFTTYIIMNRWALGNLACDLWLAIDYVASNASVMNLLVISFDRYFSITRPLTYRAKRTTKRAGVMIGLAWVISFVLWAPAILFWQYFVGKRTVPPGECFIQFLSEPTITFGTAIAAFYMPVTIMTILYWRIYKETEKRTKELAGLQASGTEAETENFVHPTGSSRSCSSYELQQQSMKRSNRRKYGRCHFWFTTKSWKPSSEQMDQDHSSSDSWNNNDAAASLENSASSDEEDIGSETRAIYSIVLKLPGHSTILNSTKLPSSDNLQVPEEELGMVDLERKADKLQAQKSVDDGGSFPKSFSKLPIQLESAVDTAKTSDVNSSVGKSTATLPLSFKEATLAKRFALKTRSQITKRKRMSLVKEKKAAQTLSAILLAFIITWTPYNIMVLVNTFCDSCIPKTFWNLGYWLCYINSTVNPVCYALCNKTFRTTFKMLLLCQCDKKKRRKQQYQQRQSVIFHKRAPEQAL

This data set deals with M3 receptors (Homo sapiens, UniProt P20309). Particulars: Billard et al. 1995; cited from earlier work.

Molecules are shown by their SMILES.

Usually Ki stands for the dissociation constant of the complex between target and ligand, obtained from inhibition or displacement. In the case of `CN1[C@@H]2C[C@@H](OC(=O)[C@H](CO)c3ccccc3)C[C@H]1[C@@H]1O[C@@H]12` [Scopolamine], the Ki was 0.063 nM.
